Assay results as given in patent US6897295 (MOCHIDA PHARMACEUTICAL, dated 2005).
No constants are given. Whether binding was seen depends on the method and setting. Some entries that bind do so weakly or less than the wild type.

The chains behind the UniProt entries cited, without tags or fusion partners. Where a name states a change or a piece, a line headed by the entry shows the natural chain unless it says otherwise.
UniProt P48023: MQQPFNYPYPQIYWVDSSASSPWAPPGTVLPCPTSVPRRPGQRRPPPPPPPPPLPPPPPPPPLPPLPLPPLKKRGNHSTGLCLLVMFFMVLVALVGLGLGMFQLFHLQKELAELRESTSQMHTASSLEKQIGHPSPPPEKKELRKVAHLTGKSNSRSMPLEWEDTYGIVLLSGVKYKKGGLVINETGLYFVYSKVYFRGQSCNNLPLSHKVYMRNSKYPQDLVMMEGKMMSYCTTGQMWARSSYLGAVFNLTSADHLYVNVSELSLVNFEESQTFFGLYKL

Biological target: T1, human Fas antigen on WC8A / WC8 cells (human, UniProt P25445 26-335)
T1 construct: whole, on cells
T1 sequence (looked up): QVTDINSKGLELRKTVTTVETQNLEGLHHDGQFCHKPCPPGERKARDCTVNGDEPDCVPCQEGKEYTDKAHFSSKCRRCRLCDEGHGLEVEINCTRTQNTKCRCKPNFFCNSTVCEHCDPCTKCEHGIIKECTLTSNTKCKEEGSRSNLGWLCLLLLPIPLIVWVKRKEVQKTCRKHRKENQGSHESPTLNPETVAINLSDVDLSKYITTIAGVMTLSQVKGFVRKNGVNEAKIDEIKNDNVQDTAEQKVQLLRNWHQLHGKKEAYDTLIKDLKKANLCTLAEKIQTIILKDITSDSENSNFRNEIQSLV
Experiment: concluded from cytotoxicity of the culture supernatant on cells expressing human Fas antigen

human Fas ligand present in the culture supernatant of transformant COS-1/pEX-hFL1 (from UniProt P48023 130-281)
binding: binds
